Test results taken from PMC2860243.
No constants are given. Whether binding was seen depends on the method and setting. In cells and extracts the contact can be indirect. These calls come from enrichment with a bait or labelling near it, and not all partners need be listed.

Amino acid sequences for entries named in this document (tags omitted).
UniProt P20263: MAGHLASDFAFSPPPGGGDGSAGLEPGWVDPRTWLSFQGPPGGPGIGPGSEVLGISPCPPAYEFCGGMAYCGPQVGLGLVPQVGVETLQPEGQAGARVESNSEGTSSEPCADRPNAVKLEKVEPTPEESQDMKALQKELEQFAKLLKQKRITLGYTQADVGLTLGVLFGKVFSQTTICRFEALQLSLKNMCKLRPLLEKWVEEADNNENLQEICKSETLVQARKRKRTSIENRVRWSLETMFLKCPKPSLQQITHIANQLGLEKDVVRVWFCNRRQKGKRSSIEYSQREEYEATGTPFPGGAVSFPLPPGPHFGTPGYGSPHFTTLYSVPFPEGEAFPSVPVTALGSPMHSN

Assays:
[1] = target: FLAG-Oct4 (F-Oct4) (mouse) (UniProt P20263); assay: affinity purification with mass spectrometry; FLAG-affinity purification of F-Oct4 from 1.5 ml ESC nuclear extract on anti-FLAG M2 agarose, buffer C-100 (20 mM HEPES pH 7.6, 100 mM KCl), washes with 0.02% NP-40, Benzonase, 4°C, FLAG peptide elution; three purifications; control ZHBTc4 extract
[2] = target: Oct4 (Pou5f1) (mouse (endogenous in 46C ESCs)) (UniProt P20263); assay: affinity purification with mass spectrometry; immunoprecipitation of endogenous Oct4 (antibody sc-8628 cross-linked to protein G Sepharose) from 1 ml 46C ESC nuclear extract, Benzonase, washes with C-100*, 4°C, boiled in SDS-loading dye; control goat IgG

Row | Binder | binding [1] | binding [2]
1 | Phc1 (protein, UniProt Q64028 1-1010) METESEQNSSSTNGSSSSGASSRPQIAQMSLYERQAVQALQALQRQPNAAQYFHQFMLQQQLSNAQLHSLAAVQQATIAASRQASSPNSSTAQQQTATTQASMNLATTSAAQLISRSQSVSSPSATTLTQSVLLGNTTSPPLNQSQAQMYLRPQLGNLLQVNRTLGRNVPLASQLILMPNGAVAAVQQEVPPAQSPGVHADADQVQNLAVRNQQASAQGPQMPGSTQKAIPPGASPVSGLSQTSSQALAVAQASSGASGQSLNLSQAGGGSGNSLPGSMGPGGGGQAPGGLGQLPSSGLTGGSCPRKGTGVVQPLPAAQTVTVSQGSQTEAESAAAKKAEADGSGQQSVGMNLTRTATPAPSQTLISSATYTQIQPHSLIQQQQQIHLQQKQVVIQQQIAIHHQQQFQHRQSQLLHTATHLQLAQQQQQQQQQQQQQQQQQQQQQQGTTLTAPQPPQVPPTQQVPPSQSQQQAQTLVVQPMLQSSPLTLPPEPTSKPPIPIQSKPPVAPIKPPQLGAAKMSATQQPPPHIPVQVVGTRQPGSAQAQALGLAQLAAAVPTPRGITGAVQPGQAHLASSPPSSQAAPGALQECPPALAAGMTLAPVQGTAHVVKGGPTASSPVVAQVPAAFYMQSVHLPGKAQTLAVKRKAESEEERDDLSALASVLPTKASPAAESPKVIEEKNSLGEKAEPVASLNANPPNSDLVALAPTPSAPPPTLALVSRQMGDSKPPQAIVKPQILTHIIEGFVIQEGAEPFPVGCSQFLKETKKPLQAGLPTGLNESQPSGPLGGDSPSVELEKKANLLKCEYCGKYAPAEQFRGSKRFCSMTCAKRYNVSCSHQFRLKRKKMKEFQEASYARVRRRGPRRSSSDIARAKIQGKRHRGQEDSSRGSDNSSYDEALSPTSPGPLSVRAGHGERDLGNTITTPSTPELQGINPVFLSSNPSQWSVEEVYEFIASLQGCQEIAEEFRSQEIDGQALLLLKEEHLMSAMNIKLGPALKICAKINVLKET | binds | –
2 | Rybp (protein, UniProt Q8CCI5 1-228) MTMGDKKSPTRPKRQAKPAADEGFWDCSVCTFRNSAEAFKCSICDVRKGTSTRKPRINSQLVAQQVAQQYATPPPPKKEKKEKVEKPDKEKPEKDKDISPSVTKKNTNKKTKPKSDILKDPPSEANSIQSANATTKTSETNHTSRPRLKNVDRSTAQQLAVTVGNVTVIITDFKEKTRSSSTSSSTVTSSAGSEQQNQSSSGSESTDKGSSRSSTPKGDMSAVNDESF | binds | binds
3 | Zmym2 (protein, UniProt Q9CU65 1-1376) MDTSSVGTLELTDQTPVLLGSTAMATSLTNVGNSFSGPPNPLVSRSSKFQNSSVEDDDDVVFIEPVQPPPSSAPLVADQRPITFTSSKNEELQGNDPKILPSSKELAPQKGSVSETIVIDDEEDMETNQGQEKSSSNFIERRPSETKNRTNDVDFSSSTFSRSKVNAGVSNSGITTEPDSEIQIANVTTLETGVSSVSDGQLESTDGRDMNLMITHVTSLHNTSLGDGSNGLQSSNFGVNIQTYTPSLTSQTKAGVGPFNPGRMNVAGDVFQNGESAPHHNPDSWISQSASFPRNQKQQGVDSLSPVASLPKQIFQPSNQQPTKPVKVTCANCKKPLQKGQTAYQRKGSAHLFCSTTCLSSFSHKPAPKKLCVMCKKDITTMKGTIVAQVDSSESFQEFCSTSCLSLYEDKQSPAKGALNKSRCTICGKLTEIRHEVSFKNMTHKLCSDHCFNRYRMANGLIMNCCEQCGEYLPSKGAGNNVLVVDGQQKRFCCQSCVTEYKQVGSHPSFLKEVRDHMQDSFLMQPEKYGKLTTCTGCRTQCRFFDMTQCIGPNGYMEPYCSTACMNSHKTKYAKSQSLGIICHFCKRNSLPQYQATMPDGKLYNFCNSSCVAKFQALSMQSSPNGQFVAPSDIQLKCNYCKNSFCSKPEILEWENKVHQFCSKTCSDDYKKLHCIVTYCEYCQEEKTLHETVNFSGVKRPFCSEGCKLLYKQDFARRLGLRCVTCNYCSQLCKKGATKELDGVVRDFCSEDCCKKFQEWYYKAARCDCCKSQGTLKERVQWRGEMKHFCDQHCLLRFYCQQNEPNMTTQKGPENLHYDQGCQTSRTKMTGSAPPPSPTPNKEMKNKAILCKPLTMTKATYCKPHMQTKSCQTDENWKTEYVPVPIPVPVYVPVPMHMYSQNIPVPTTVPVPVPVPVFLPAPLDSSEKIPATVEDLKSKVSSDPLDSELLTMTDMMTEEEGKAEASNINSVIIETDIIGSDLTKNSDPDIQSNMPDVPYEPDLDIEIDFPRAAEELDMENEFLLPPVFGEEYEEQPRPRSKKKGTKRKAVSGYQSHDDSSDNSECSFPFKYTYGVNAWKHWVKTRQLDEDLLVLDELKSSKSVKLKEDLLSHTTAELNYGLAHFVNEIRRPNGENYAPDSIYYLCLGIQEYLCGSNRKDNIFIDPGYQMFEQELNKILRSWQPSILPDGSIFSRVEEDYLWRIKQLGSHSPVALLNTLFYFNTKYFGLKTVEQHLRLSFGTVFRHWKKNPLTMENKACLRYQVSSLCGTDNEDKIATGKRKHEDDEPVFEQVENTANPSRCPVKMFECYLSKSPQNLNQRMDVFYLQPECSSSTDSPVWYTSTSLDRNTLENMLVRVLLVKDIYDKDNYELDEDTD | binds | –
4 | Zfp219 (protein, UniProt Q6IQX8 1-726) MEGSRPRILVGHLEPSPPAFDGELDLQRYSNGPGVSGTPGPGSPGMGAVGWSETRAGERRFPCPVCGKRFRFNSILALHLRAHPGAQAFQCPHCGHRAAQRALLRSHLRTHQPERPRSPAARLLLELEERALLREARLGRARSSGGMQSSPAAEGLARPQVPSSSAFRCPFCKGKFRTSAERERHLHILHRPWKCSLCSFGSSQEEELLHHSLTAHGASERPLAATSTPEPPPPPQQEPRSALEPEPEPEPRPEPDREANPAPTPAPPEEPPAPPEFRCQVCGQSFTQSWFLKGHMRKHKASFDHACPVCGRCFKEPWFLKNHMKVHTSKLGPLRAPGPGSAPARAPQPPDLSLLAYEPLGPALLLAPAPAPAERREPPSLLGYLSVRAGEVRPNGEGADPGGGRSYGGFRPLPSALPNRARRHRTEEPEEEEEVVEAEEESWARGRSLGSLTSLHPNPGEGSGQPAPAAGTQARSTATQEENGLLVGGTRSEAGRGATGKDCPFCGKSFRSAHHLKVHLRVHTGERPYKCPHCDYAGTQSGSLKYHLQRHHREQRSSAGPGPPPEPPPPSQRGSLQPQSGAKPTQASATWVEGTASTRPPSSSTGPGSRRKPASPGRTLRNGRGGEAEPLDLSLRAGPGGEAGAGGALHRCLFCPFATGAPELMALHLQVHHSRRARGRRQPRADTSPTYVRAPSGETPPSPPLEEEGSPGLSRSGEAGLGGQER | binds | binds
5 | Arid3b (protein, UniProt Q9Z1N7 1-568) MEPLQQQQQQQQQKQPQQPLLQMDAREKQGPQTRESQFLYASKLGTQPALLSITPGRPSGSSVLGPLARVPPATPVARMSEQSNVNSEPEEEEGGLEDEDGDDDVAEVAEKEAQAASKYFHMQKVTRQEPRATPMSSLLPVPGLSPQGQQTKEDHTKDASKAPPSVPTAGQPSWSLDEQLKQNGALAWSDDADGGRGREISRDFAKLYELDGDPERKEFLDDLFIFMQKRGTPINRIPIMAKQILDLYMLYKLVTEKGGLVEIINKKIWREITKGLNLPTSITSAAFTLRTQYMKYLYAYECEKKALSSPAELQAAIDGNRREGRRPSYSSSLFGYSPAAAAAAAAAAAAAAASAASAGTPALLSSPKIRFSILGLGSSSGTSASSPRIPPASTLRKGDGVPVPVPNRLAVSGTLAGQQAGNRPGPLEHLRERLESGEPPEKKASRLSEEEQRLVQQAFQRNLFSMARQLPMKIRINGREDRAEPSAPALNLTTSNIGSINMSVDIDGTTYTGVLFAQKPVVHLIAGSTPQSIGSSASSSNSSSSHCSPSPTSSRGTPSAEPSTSWSL | binds | binds
6 | Smc1a (protein, UniProt Q9CU62 1-1233) MGFLKLIEIENFKSYKGRQIIGPFQRFTAIIGPNGSGKSNLMDAISFVLGEKTSNLRVKTLRDLIHGAPVGKPAANRAFVSMVYSEEGAEDRTFARVIVGGSSEYKINNKVVQLHEYSEELEKLGILIKARNFLVFQGAVESIAMKNPKERTALFEEISRSGELAQEYDKRKKEMVKAEEDTQFNYHRKKNIAAERKEAKQEKEEADRYQRLKDEVVRAQVQLQLFKLYHNEVEIEKLNKELASKNKEIEKDKKRMDKVEDELKEKKKELGKMMREQQQIEKEIKEKDSELNQKRPQYIKAKENTSHKIKKLEAAKKSLQNAQKHYKKRKGDMDELEKEMLSVEKARQEFEERMEEESQSQGRDLTLEENQVKKYHRLKEEASKRAATLAQELEKFNRDQKADQDRLDLEERKKVETEAKIKQKLREIEENQKRIEKLEEYITTSKQSLEEQKKLEGELTEEVEMAKRRIDEINKELNQVMEQLGDARIDRQESSRQQRKAEIMESIKRLYPGSVYGRLIDLCQPTQKKYQIAVTKVLGKNMDAIIVDSEKTGRDCIQYIKEQRGEPETFLPLDYLEVKPTDEKLRELKGAKLVIDVIRYEPPHIKKALQYACGNALVCDNVEDARRIAFGGHQRHKTVALDGTLFQKSGVISGGASDLKAKARRWDEKAVDKLKEKKERLTEELKEQMKAKRKEAELRQVQSQAHGLQMRLKYSQSDLEQTKTRHLALNLQEKSKLESELANFGPRINDIKRIIQSREREMKDLKEKMNQVEDEVFEEFCREIGVRNIREFEEEKVKRQNEIAKKRLEFENQKTRLGIQLDFEKNQLKEDQDKVHMWEQTVKKDENEIEKLKKEEQRHMKIIDETMAQLQDLKNQHLAKKSEVNDKNHEMEEIRKKLGGANKEMTHLQKEVTAIETKLEQKRSDRHNLLQACKMQDIKLPLSKGTMDDISQEEGSSQGEESVSGSQRTSSIYAREALIEIDYGDLCEDLKDAQAEEEIKQEMNTLQQKLNEQQSVLQRIAAPNMKAMEKLESVRDKFQETSDEFEAARKRAKKAKQAFEQIKKERFDRFNACFESVATNIDEIYKALSRNSSAQAFLGPENPEEPYLDGINYNCVAPGKRFRPMDNLSGGEKTVAALALLFAIHSYKPAPFFVLDEIDAALDNTNIGKVANYIKEQSTCNFQAIVISLKEEFYTKAESLIGVYPEQGDCVISKVLTFDLTKYPDANPNPNEQ | binds | –
7 | Zcchc8 (protein, UniProt Q9CYA6 1-709) MAAGVDFGDLELFEAFDPPEESTPKPVHTRFKDDEEEEDDDDDENGVGDAELQEQLRRCEATIEQLRAENQELKRKLNILTRPSGILVSNTKIDGPLLQILFMNNAISKQYHQEIEEFVSNLVKRFEEQQKNDVEKTSFSLLPQPSSVMLEEDHKVEESCAVKNNKEAFSVVGSVLYFTNFCLDKLGQPLLNENPQLTEGWEIPKYQQVFSHIVPLEGQEMQVKAKRPKPHCFNCGSEEHQMKECPMPRNAARISEKRKEYMDACGEASGQSFQQRYHAEEVEERFGRFKPGVISEELQDALGVTDKSLPPFIYRMRQLGYPPGWLKEAELENSGLALYDGNDDADGETETGEIQNKNVTYDLSKLVNYPGFNISTPRGIPDEWRMFGSIPMQACQQKDVFASYLNSNIQSPSMRSSGKRSSSQSSPNSPKKQRKEGSAAASPADMELDSDVEIPPGSQSSKAFQFQPPLPPGTPPPLPQGTPPPLFTPPLPKGTPPLTPSDSPQARPAASAMDEDALTLEELEEQQRQIWAALQQAEGGNGDSDVPGDTPLTGNSVASSPCPNEFDLPVPEGKALEKPVLAEPQEPAASVDTAGPEPSCSPAAGAAVLSQREEEAAAEGGPGDALLDNGGVLNMNMSNGSNQQPIHPDSRPPMAPKTHSPVPDMSKFATGITPFEFENMAESTGMYLRIRNLLKNSPRNQQKNKKTCE | binds | –
